From PubChem BioAssay AID445 (National Center for Advancing Translational Sciences (NCATS), 2006)
This is one part of the list. Shown are side measurements of this screen, not its main read-out; they come without a call. Most of these compounds were active or inconclusive in the main read-out, so they are no random draw. The note in brackets gives the kind of curve behind each potency; many fits are weak.

assay: IkB Signaling; conditions: ABC-DLBCL IkBa-CBG/CBR dual luciferase ratio (green luciferase fused to IkBa over red control in OCI-Ly3 lymphoma cells), 4 h; measured here: control luc red channel unless noted
How it was run: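 Luminescence ratio of IκBα-fused green versus native red beetle luciferase in OCI-Ly3 cells, 4 h post-doxycycline with compound; red signal alone, scaled from basal (0%) to zero light (-100%), flagged nonspecific or cytotoxic effects.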

Compound	AC50
COc1cccc2sc(NC(=O)CS(=O)(=O)c3ccc(C)cc3)nc12	12.6 µM [falling, partial curve]
O=C(CCCCn1c(=O)[nH]c2ccccc2c1=O)N1CCN(c2cccc(C(F)(F)F)c2)CC1	15.8 µM [falling, partial curve]
COc1ccc2c(c1)C(C)=CC(C)(C)N2C(=O)CSc1nnc(-c2ccc(C)cc2)o1	15.8 µM [falling, partial curve]
COc1ccc(OC)c(NC(=O)CCCc2nnc3n(C(C)C)c(=O)c4sccc4n23)c1	25.1 µM [rising, partial curve]
CCn1cc2nc(SCc3cccc(C(F)(F)F)c3)n(Cc3ccc(Cl)cc3)c(=O)c2n1	7.94 µM [falling, partial curve]
Cc1ccc(Cl)cc1-n1nnc(-c2nsc(NC(=O)c3ccccc3Cl)n2)c1C	20 µM [falling, partial curve]
COc1cc(C2CC(=O)N3CN(Cc4ccco4)CSC3=C2C#N)ccc1OCc1ccccc1 (stereo not given)	12.6 µM [falling, partial curve]
Cc1ccc2oc(C(=O)Nc3ccc(S(=O)(=O)N4CCCC(C)C4)cc3)cc(=O)c2c1 (stereo not given)	20 µM [falling, partial curve]
CCc1ccc(-n2c(=O)c3ccccc3n(CC(=O)NCCc3ccc(OC)c(OC)c3)c2=O)cc1	15.8 µM [falling, partial curve]
COc1ccc(Cl)cc1NC(=O)NCCn1c(=O)oc2ccc(C)cc21	25.1 µM [falling, partial curve]
Cn1c(=N)n(CC(=O)C(C)(C)C)c2ccccc21	3.98 µM [rising, full curve, poor fit]
O=C(NCc1ccccc1)c1ccc(-c2ccccc2F)o1	12.6 µM [falling, single point]
COc1ccc(OC)c(N(CC(=O)N2CCN(c3cc(Cl)ccc3C)CC2)S(C)(=O)=O)c1	15.8 µM [falling, partial curve]
Cc1ccc(N(CC(=O)N2CCN(c3cccc(Cl)c3)CC2)S(=O)(=O)c2c(C)noc2C)cc1	3.98 µM [falling, full curve, poor fit]
O=C(NCc1ccco1)C1Cc2ccccc2CN1S(=O)(=O)c1ccccc1F (stereo not given)	7.94 µM [falling, partial curve]
Cc1ccccc1NC(=O)c1c(NC(=O)c2ccccc2)sc2c1CCC2	0.501 µM [falling, full curve]
CCN(CC)C(=O)c1sc2c(c1C)c(=O)n(-c1ccccc1)c(=O)n2Cc1c(C)cc(C)cc1C	31.6 µM [falling, single point]
CCOc1ccc(NC(=O)CC2C(=O)N(c3ccccc3)C(=O)N2CCc2cccs2)cc1 (stereo not given)	12.6 µM [falling, partial curve]
Cc1cccc(NC(=O)c2ccccc2O)c1C	39.8 µM [falling, single point]
Cc1ccc(CCNC(=O)c2sc3ncccc3c2-n2c(C)ccc2C)cc1	20 µM [falling, partial curve]

Ordered by molecular weight (low to high): 3 of the compounds above
Compound	AC50
O=C(NCc1ccccc1)c1ccc(-c2ccccc2F)o1	12.6 µM [falling, single point]
Cc1ccccc1NC(=O)c1c(NC(=O)c2ccccc2)sc2c1CCC2	0.501 µM [falling, full curve]
COc1ccc(OC)c(NC(=O)CCCc2nnc3n(C(C)C)c(=O)c4sccc4n23)c1	25.1 µM [rising, partial curve]

Remaining list, next part

Compound	AC50
CCC(=O)Nc1ccc(CC)cc1-c1nc2ccccc2n(CC(=O)Nc2cccc(OC)c2)c1=O	15.8 µM [falling, single point]
COc1cccc(C2=CC(c3ccccc3F)n3ncc(C(=O)Nc4ccc(C)cc4)c3N2)c1 (stereo not given)	31.6 µM [falling, partial curve]
COc1ccc(-c2nc(CS(=O)CC(=O)NCCc3ccccc3)c(C)o2)cc1OC (stereo not given)	7.94 µM [rising, full curve]
Cc1cc(N2CCN(C)CC2)nc2ccc(NC(=O)c3ccc(C(C)(C)C)cc3)cc12	39.8 µM [falling, single point]
Cc1ccc(C(=O)n2nc(C)c(S(=O)(=O)N3CCCCCC3)c2C)cc1C	31.6 µM [falling, single point]
COc1ccccc1NC(=O)CSc1nc(O)c(C/C=C/c2ccccc2)c(=O)[nH]1	25.1 µM [falling, partial curve]
COc1ccc(CNC(=O)c2nc(SCc3ccc(C)cc3)ncc2Cl)cc1	6.31 µM [rising, single point]
O=C(O)CCC(=O)Nc1ccc2c(c1)oc1ccccc12	0.00316 µM [falling, full curve]
CCOc1cccc2sc(N3CCN(C(=O)c4ccc5c(c4)CCCC5)CC3)nc12	31.6 µM [falling, partial curve]
CC(C)C(NS(=O)(=O)c1ccc2c(c1)oc(=O)n2C)C(=O)N1CCN(c2cccc(Cl)c2)CC1 (stereo not given)	39.8 µM [falling, single point]
CCN(CC)C(=O)c1ccc2c(c1)N(Cc1c(F)cccc1Cl)C(=O)c1ccccc1S2	25.1 µM [falling, single point]
Cc1ccn2c(Nc3c(C)cccc3C)c(-c3ccsc3)nc2c1	15.8 µM [falling, partial curve]
O=C(CSc1nc(=O)[nH]c2c1CCCC2)Nc1ccc(Cl)c(Cl)c1	39.8 µM [falling, single point]
Cc1cccc(NC(=O)Cn2cc(C(=O)c3ccco3)c3ccccc32)c1C	31.6 µM [falling, partial curve]
Cc1nn(CC(=O)NCc2ccc(OC(C)C)cc2)c(=O)c2c(C)n(-c3ccc(Cl)cc3)nc12	25.1 µM [falling, partial curve]
COc1ccc(CN2C(=O)C(NC(=O)c3ccccc3C)(C(F)(F)F)N=C2c2ccccc2)cc1 (stereo not given)	31.6 µM [falling, partial curve]
Cc1ccc2oc(-c3ccc(Cl)c(NC(=O)c4ccc(-c5ccccc5[N+](=O)[O-])o4)c3)nc2c1	12.6 µM [falling, partial curve]
O=C(Nc1ccc(F)cc1F)c1noc2c1CCc1ccccc1-2	0.0126 µM [falling, full curve]
COC(=O)c1ccccc1NC(=O)Cc1noc2ccc(C)cc12	39.8 µM [falling, single point]
COCCn1c(=O)c(-c2cccc(C#N)c2)nc2cnc(Nc3ccccc3)nc21	5.01 µM [falling, partial curve] [measured here: IkB-luc green channel]

2 entries from above, reformatted.
Cc1ccc2oc(C(=O)Nc3ccc(S(=O)(=O)N4CCCC(C)C4)cc3)cc(=O)c2c1 (stereo not given)
  AC50: 20 µM [falling, partial curve]
CCc1ccc(-n2c(=O)c3ccccc3n(CC(=O)NCCc3ccc(OC)c(OC)c3)c2=O)cc1
  AC50: 15.8 µM [falling, partial curve]

The results go on.

Compound	AC50
CCc1ccc(NC(=O)CC2C(=O)N(c3ccccc3)C(=O)N2C(C)C)cc1 (stereo not given)	3.98 µM [rising, partial curve]
COc1ccc(Br)cc1CNC(=O)CN1CCSc2ccccc21	20 µM [falling, partial curve]
CCCCc1nnc(NC(=O)CSc2nc(=O)cc(N)n2-c2ccccc2)s1	15.8 µM [falling, partial curve]
CN1CC(=O)NC1=NC(=O)C12CC3CC(CC(C3)C1)C2	39.8 µM [rising, single point] [measured here: IkB-luc green channel]
O=C(Nc1ccc(Cl)c(Cl)c1)N1CCC(c2ccccc2)C1 (stereo not given)	0.0398 µM [falling, full curve]
Cc1cccn2c(=O)cc(COc3cccc(NC(=O)c4ccccc4F)c3)nc12	2.51 µM [falling, full curve]
CC(=O)O[C@@H]1C(=O)[C@@]2(C)[C@H](O)C[C@H]3OC[C@]3(OC(C)=O)[C@@H]2[C@H](OC(=O)c2ccccc2)[C@@]2(O)C[C@H](OC(=O)[C@@H](O)[C@@H](NC(=O)c3ccccc3)c3ccccc3)C(C)=C1C2(C)C (stereo in doubt)	20 nM [rising, full curve, poor fit] [measured here: IkB-luc green channel]
Cn1c(C(=O)N2CCCC(C(=O)NCCCc3ccccc3)C2)cc2sccc21 (stereo not given)	15.8 µM [falling, partial curve]
Cc1ccc(-c2nc(SCC(=O)NCC3CCCO3)c(-c3ccc(C)cc3)[nH]2)cc1 (stereo not given)	15.8 µM [falling, partial curve]
NC1=C(c2ccc(F)cc2)C(=O)CS1	0.501 µM [falling, full curve]
COc1ccc(C)cc1NC(=O)c1ccc2c(Cl)c3c(nc2c1)CCC3	1.58 µM [falling, full curve]
Cn1nc(C(=O)N2CCN(c3ccccc3)CC2)c2c1-c1ccccc1S(=O)(=O)C2	39.8 µM [falling, single point]
CCOC(=O)N1CCN(C(=O)c2ccc(Cn3c(=S)[nH]c4cc5c(cc4c3=O)OCO5)cc2)CC1	3.16 µM [falling, full curve]
COc1ccc(S(=O)(=O)c2c(SC)nn(Cc3ccccc3C)c2NC(C)=O)cc1	25.1 µM [falling, single point]
O=C(CSc1nc2c([nH]c3ccccc32)c(=O)n1-c1ccccc1)N1CCCC1	1.26 µM [rising, full curve, poor fit]
Cc1ccc(C)c(S(=O)(=O)N2CCC(c3nc4c(nnn4Cc4ccc(F)cc4)c(=O)[nH]3)CC2)c1	20 µM [falling, partial curve]
Cc1ccc(OCC(=O)Nc2ccc3nn(-c4ccc(Cl)cc4)nc3c2)cc1	0.0631 µM [rising, full curve, poor fit]
CCOC(=O)c1cccc(Nc2ccc3cc(S(=O)(=O)N4CCCCC4)ccc3n2)c1	5.01 µM [rising, partial curve]
O=c1c2oc3ccccc3c2n(Cc2ccccc2)c(=O)n1Cc1ccc2c(c1)OCO2	1 µM [falling, partial curve]
Cc1ccc(C)c(NC(=O)Cn2c(=O)n(CCC(=O)NCc3ccc4c(c3)OCO4)c(=O)c3ccccc32)c1	2 µM [rising, full curve, poor fit]
